Test results taken from paper PMC6232482.
These are yes or no findings as the source states them, for the method shown. In cells and extracts the contact can be indirect. Where a sequence is shown, tags or fusion partners need not be part of it.

Sequences of proteins named here, by UniProt entry; tags and fusion partners are left off.
UniProt P21698: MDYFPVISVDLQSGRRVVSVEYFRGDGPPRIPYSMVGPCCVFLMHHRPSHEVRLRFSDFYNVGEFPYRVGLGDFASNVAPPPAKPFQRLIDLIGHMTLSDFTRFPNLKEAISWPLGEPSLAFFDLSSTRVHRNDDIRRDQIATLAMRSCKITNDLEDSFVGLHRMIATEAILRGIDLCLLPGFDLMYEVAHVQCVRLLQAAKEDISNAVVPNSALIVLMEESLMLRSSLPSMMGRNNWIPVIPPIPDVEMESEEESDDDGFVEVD

Molecular target: T1, eGFP-IRF3 fusion protein (full-length IRF3) (UniProt Q14653)
T1 sequence: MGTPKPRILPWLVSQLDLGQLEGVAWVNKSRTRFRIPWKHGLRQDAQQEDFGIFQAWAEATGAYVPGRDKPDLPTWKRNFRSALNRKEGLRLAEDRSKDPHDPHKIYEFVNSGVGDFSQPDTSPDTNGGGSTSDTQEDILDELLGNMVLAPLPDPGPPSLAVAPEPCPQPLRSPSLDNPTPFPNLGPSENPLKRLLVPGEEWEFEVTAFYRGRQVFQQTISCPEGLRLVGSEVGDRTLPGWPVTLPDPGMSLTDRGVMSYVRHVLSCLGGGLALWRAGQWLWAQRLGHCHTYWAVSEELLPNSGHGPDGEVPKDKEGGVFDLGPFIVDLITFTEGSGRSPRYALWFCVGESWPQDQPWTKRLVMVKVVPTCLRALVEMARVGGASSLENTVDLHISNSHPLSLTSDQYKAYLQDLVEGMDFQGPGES
Test: co-IP

3×FLAG-tagged NSs of Rift Valley fever virus (RVFV) (from UniProt P21698 1-265)
binding: no binding
